# Test results taken from PubChem BioAssay AID1508600 (Functional Genomics Laboratory (NCATS/FGL), 2020).
# The campaign covered roughly 53,000 sequences. About 3,700 (7%) were called active.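 The calls were made as follows: active = gene knockdowns whose robust z-score for IL-1 alpha signal is at least 2 or at most -2, so actives lie on both sides; inactive = the rest.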 The list shows a part of the results.
# Experiment: Components of the Cytosolic LPS Sensing Pathway: Gene Identification via Genome-wide siRNA Screen;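 also: robust z of the log signal after scaling to non-targeting control siRNA wells of the plate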
# Details: RAW264.7 macrophages, IL-1a HTRF, actives lie on both sides, screened at 100 nM (by protocol), cells primed 5 h with Pam3CSK4 first
# Summary of the method: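 Supernatant IL-1a by HTRF from RAW264.7 cells primed with Pam3CSK4 (5 hours) and transfected with LipidA (24 hour) after 48h siRNA knockdown at 100 nM; cell viability checked with CellTiter-Glo.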
row,Sequence,z-score
1,GGAGUACAUGGUGAUGUUGTT against Prss43,active: -2.6
2,GGAGAAGAUCACAAGAGGGTT against Slc35b1,inactive: -0.736
3,GGUAAAAACCCAGAGAUGATT against Rem2,inactive: 0.616
4,GGGUACAAAGGCUGUAGUUTT against Sec61a1,active: -2.42
5,CCUGUAAUGCACUCUCCUATT against Snw1,inactive: 0.199
6,GGCAUUUAAUCACUGGCUGTT against Ggps1,inactive: -1.01
7,GGCGAAGAAGACAGAAAAGTT against H2al1m,inactive: 0.82
8,UGGUGAAUACCAGUCUAAUTT against Tnfrsf23,inactive: 0.0551
9,GGAAAUUCAGCAUGGAGCCTT against Vgll4,inactive: 0.934
10,GACAACAACUCUUGGCAGATT against Speer4d,inactive: -0.526
11,CGAUGACAGGAAAGUUCGATT against Batf3,inactive: -0.723
12,CCUUACAGGACAUAAAACATT against Serinc1,inactive: -0.825
13,GCUUUGCGCUGCCCUUAUATT against Cxcl17,inactive: 1.59
14,GGCAGAAGAGUGGUACUUUTT against Fyn,inactive: -1.63
15,GGCUAAAGGCCUUCUUUUUTT against Reep3,inactive: 0.622
16,GCCUUGACGUGCUUCAGAUTT against Golga7,inactive: 0.453
17,GAACGUGAAGGCCAAGAUCTT against Ubb,inactive: -0.124
18,GGAUAUCCCAUCUCCUGUUTT against Imp4,inactive: -1.66
19,GGGUUCUGUGUAAAUGUAUTT against Gzma,inactive: 0.203
20,CGGCAUUGUCACAGUUACGTT against Zkscan17,inactive: -0.778
21,GGUGAUUAUUUUGUCAGCCTT against Olfr1228,inactive: 1.86
22,GCUUAGCUGUUAUGUUUUUTT against Atp6ap1,inactive: 1.81

row,Sequence,z-score
1,CGAAGAAAACCAUAAGGACTT against Bdnf,inactive: -0.876
2,GGUCAAUUGCACCUGGAACTT against Snx19,inactive: -0.749
3,GGAAUGGAGUUUGGUUUUGTT against Extl1,active: 2.67
4,UACCUUUAGCGCGCUUCCUTT against Oxt,inactive: 0.217
5,GGUCUCAUAGAGUGUUACUTT against Anapc7,active: 4.38
6,GGCAUCUGCAUUUGAUUAUTT against Cmtr2,inactive: -0.00519
7,GGCAGUUUGGUUUUUUUUGTT against Galnt7,inactive: -0.408
8,GGAAGAAGAAGAUAAAGAATT against Noc2l,inactive: 0.952
9,CGACAAACUACAUAGCAGATT against Brms1,inactive: 0.823
10,GGAAUGGAAUAGAUGCUCATT against Vmn2r-ps105,inactive: -0.514
11,GGACUGGUUUGACUUUAAATT against Oasl1,inactive: -0.494
12,GCCACUCGAUAAUGAGUGGTT against Cmtr2,inactive: 0.641
13,GGCUCAGCACUUUCCUAAUTT against Ifnab,inactive: -0.327
14,GGCUGUAGUUCUCACUGUGTT against Olfr902,inactive: -1.66
15,GGCCUUUAUUCAGAUGUCATT against Zscan12,active: -2.79
16,CGAUGUCAUCUUAGCUACGTT against B4gat1,inactive: -0.563
17,GGCAACAAAUGCUGUGUAATT against 2610301B20Rik,inactive: -1.94
18,GGCGGAUGACCUAGAGGAUTT against Ddx60,inactive: 1.19
19,GGCGGAUACUUGAUCGAAATT against Exoc3,active: 2.41
20,CGACAUAUCCUUCUUUUCUTT against Ppic,inactive: 0.552
21,GCUUGCUCACUCUAGUACUTT against Olfr937,inactive: 0.528
22,CGGUCUUCAAGCUCCCUCATT against Olfr243,inactive: -1.82

# In a second layout: entries from further up
row | Sequence | z-score
12 | GCCACUCGAUAAUGAGUGGTT against Cmtr2 | inactive: 0.641
14 | GGCUGUAGUUCUCACUGUGTT against Olfr902 | inactive: -1.66

# (continued)

row,Sequence,z-score
1,GGCACUGGUUGCCAUAAAATT against Stk-ps2,inactive: -0.203
2,CCAAGUAUGCUAGCAUGAUTT against Ndufa3,inactive: -0.998
3,GGUACACAGUCAUAAUGAGTT against Olfr975,inactive: -1.61
4,GGACAUCCAGACCAAUGUCTT against Psmd8,inactive: 1.1
5,GCAAUGAACAAAUUUGGUGTT against Naa15,inactive: 0.102
6,GGAUGGAGAUUAUGAAGAGTT against Pcsk9,inactive: -0.248
7,GGACAUGAAGCAAGACCAATT against Shfl,inactive: 0.98
8,GAAGAGACCUUCACAAAGUTT against Hnrnpll,inactive: -1.52
9,GGUUGUAAAGAUGAGAAAATT against Srfbp1,inactive: -0.0426
10,GGUGCUCCCUGCAUACUAUTT against Ngp,inactive: 1.34
11,GGAAAGUUGUGAACUCUAATT against Olfr1157,inactive: 0.583
12,GGAUAGUCCAAAGUUUUGUTT against Zfp740,inactive: 1.24
13,GCCAGAGUUUAUUAACUGCTT against Stxbp6,inactive: -0.809
14,GCUGCUGUGGUUCUAGUUGTT against Krtap4-2,inactive: 0.574
15,CCUUAUUCUGGAAUACCUGTT against Noc2l,inactive: 0.622
16,CGAAGUCAAGCAGAAAAGATT against C1qtnf1,inactive: -0.892
17,CGAUUUAAAGUAGUAGUGGTT against Dusp28,inactive: -1.13
18,GGAAUGCAUCACAAAACUUTT against Lancl2,inactive: 0.24
19,GGCUAAGACCAAAACUUUATT against Cyp4f13,inactive: 0.772
20,CCGUUUUGUCUGAAUUCCCTT against 4930515G01Rik,active: -2.14
21,GCCAUCUACUUUGUUAUAGTT against Kcnk4,inactive: 0.725
22,CGCGUUGACAUACAUAAAATT against Coq5,inactive: -0.102

row,Sequence,z-score
1,GCACUUGUGACUAUAAAGUTT against Celf2,inactive: 0.262
2,GGACAAGGCUGCUACUUCATT against Pou6f2,inactive: 1.74
3,GGAUCACUUUGACCACAACTT against Rab31,inactive: 1.43
4,GGAAAGAAGCCAAAGAAAUTT against Spata4,inactive: -1.32
5,GCUUGCUCAGGGAUUUUUATT against Rb1cc1,inactive: 1.35
6,CCCGAGAAUACACCAUCAATT against Rpl31,inactive: 0.347
7,ACUGGCCGGGAUUACAGAUTT against Ang3,inactive: 0.566
8,GGACUUCCAGAGCUGUUUUTT against Sinhcaf,inactive: -1.29
9,GGACCAGAGGAAGAUUCCCTT against 1700020D05Rik,inactive: 0.469
10,GGGUGUAACUGUGAGAUAATT against Kmt5a,inactive: 0.265
11,CCACGUUGUCAUAAUAAACTT against Mrpl13,inactive: 0.688
12,GGCAAUGCUAGGUGAGGAATT against Olfr157,inactive: -0.215
13,GGUCUCUGUUGCUUUGACUTT against Tgoln1,active: 4.13
14,GGCUCCUUUCGAAAGUAAATT against BC051142,inactive: 0.467
15,CCGUGUCUUCCAUAUUGGUTT against Trip6,inactive: -0.247
16,CGGAGCUGUUGGUAAAACCTT against Rac1,inactive: -0.0361
17,GGAAGAAAAACUUGUCUCCTT against Copa,inactive: 0.25
18,GGCUGUGUCAUCACCAUCUTT against Acot7,inactive: -1.31
19,GGACAGUUUGGUACCAGUGTT against Lime1,inactive: 0.0297
20,GGUAUACAUGCUUCUCUCUTT against Olfr610,inactive: -0.569
21,GCAAUAUACACCAUAUUGGTT against Panx3,inactive: 0.544
22,GGAAAGGAUAAAGUAUAUCTT against Aspm,inactive: -0.0167

# Taken from above:
# For z-score, GGACUUCCAGAGCUGUUUUTT against Sinhcaf shows inactive: -1.29
# For z-score, GCUUGCUCAGGGAUUUUUATT against Rb1cc1 shows inactive: 1.35
# For z-score, ACUGGCCGGGAUUACAGAUTT against Ang3 shows inactive: 0.566
# For z-score, GGCUGUGUCAUCACCAUCUTT against Acot7 shows inactive: -1.31
# For z-score, CCCGAGAAUACACCAUCAATT against Rpl31 shows inactive: 0.347
# For z-score, GGAAAGAAGCCAAAGAAAUTT against Spata4 shows inactive: -1.32

# (further entries)

row,Sequence,z-score
1,CGAAACUAGGAUUGAGGAGTT against Ece1,inactive: -0.488
2,CGAUUCUGCUACCUAUAGATT against 2810408A11Rik,inactive: 0.62
3,GGAAAAAAAGGUGAAAACCTT against Ttc16,inactive: 1.73
4,GCCACAAACCAAUGGUUUGTT against B230219D22Rik,inactive: 0.121
5,CCUUUGAGCCAGUUAUUUATT against Slc25a27,inactive: 0.366
6,GGAAGUGCUGUUCUUGGGCTT against Smug1,inactive: -0.0427
7,GCAUUAGGUAUUACUACCUTT against Fate1,inactive: -0.00485
8,CCGAAAUUUUGAGUACUGUTT against Vmn1r67,inactive: 0.285
9,GGUAUUCAGUAAUACAGUUTT against Igf2bp3,inactive: 1.04
10,GGUUUUCACGUGCUGCUGATT against Chd1l,inactive: -1.2
11,GGUGUUGUUCCCUGUAAUATT against Serinc1,inactive: 0.995
12,GCGGAGUGUGAAACACUGATT against Ccdc32,inactive: 0.842
13,GCCAGUUUGCUGAUGGUUGTT against Tmem14c,inactive: 0.155
14,GGACAUAUUUCCAACAUGUTT against Mob3b,inactive: -1.34
15,GGCAGGACGAACAUGGCUATT against Hspb1,inactive: 1.2
16,GGAAUGAACAUCAUUGUUUTT against Sms,inactive: 0.991
17,GCAAUUACAGGAGGAAUUATT against Orc3,active: 2.86
18,GGAGUUGAGGGUCUCAUUCTT against Nphp1,inactive: -1.72
